# Primary screen of a compound library

The chains behind the UniProt entries cited, without tags or fusion partners.
UniProt E9BF75, entry or part of it: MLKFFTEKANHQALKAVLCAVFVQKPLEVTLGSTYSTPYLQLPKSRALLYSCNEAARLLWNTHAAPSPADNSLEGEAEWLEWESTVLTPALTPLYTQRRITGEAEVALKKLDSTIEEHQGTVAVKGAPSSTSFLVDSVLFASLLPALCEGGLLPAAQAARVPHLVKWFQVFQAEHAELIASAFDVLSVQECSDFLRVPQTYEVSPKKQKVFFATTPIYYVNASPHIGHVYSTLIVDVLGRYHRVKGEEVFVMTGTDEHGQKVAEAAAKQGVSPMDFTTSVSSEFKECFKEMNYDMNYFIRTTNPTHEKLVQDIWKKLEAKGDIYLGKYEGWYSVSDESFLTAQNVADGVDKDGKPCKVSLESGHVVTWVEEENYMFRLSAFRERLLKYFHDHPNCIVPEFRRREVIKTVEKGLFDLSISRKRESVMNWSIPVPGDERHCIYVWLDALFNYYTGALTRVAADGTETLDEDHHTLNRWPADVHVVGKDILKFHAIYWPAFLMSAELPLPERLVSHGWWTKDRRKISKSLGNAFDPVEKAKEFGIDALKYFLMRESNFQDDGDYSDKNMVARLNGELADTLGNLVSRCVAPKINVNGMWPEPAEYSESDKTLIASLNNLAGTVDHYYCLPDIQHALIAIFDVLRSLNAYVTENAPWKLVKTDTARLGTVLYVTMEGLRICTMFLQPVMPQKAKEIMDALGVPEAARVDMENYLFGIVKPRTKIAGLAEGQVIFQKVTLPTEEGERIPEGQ

Data taken from ChEMBL document CHEMBL3988442, “University of Dundee, Small-Polar-MMV Screening Library” (2021).

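Primary screen of methionyl-tRNA synthetase; the read-out is not stated. Target: Methionyl-tRNA synthetase (putative), Leishmania donovani (UniProt E9BF75). The test concentration is not given. Values are per cent inhibition. Size under these conditions: about 68,000 compounds, about 24 of them at 50% or above in at least one test.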

Results are percentages, as filed. The record does not define 0% and 100%; most values in the screen are far below 50% and negative numbers occur (in some assays of this library far below -100). Compounds were drawn at random from those tested, without regard to their results.

| # | structure | inhibition |
|---|---|---|
| 1 | `COc1ccccc1CCNS(=O)(=O)N1CCOCC1` | -8.883 |
| 2 | `Cc1cccc(C(=O)N2C[C@@H]3[C@H](CC(=O)Nc4cccnc4)[C@@H]3C2)n1` | 7.222 |
| 3 | `O=C(NCC(O)COc1ccc(C(F)(F)F)cc1)Nc1nncs1` (stereo not given) | 10.59 |
| 4 | `NCc1ccc(Oc2ccc(F)c(F)c2)cc1C(F)(F)F` | 10.97 |
| 5 | `COc1cc2c(nn1)CCN(Cc1noc(-c3ccccc3)n1)C2` | 11.34 |
| 6 | `O=C1NC2(Cc3ccccc31)CN(CC1CCNC1)C2` (stereo not given) | 4 |
| 7 | `CC(C)N(C)S(=O)(=O)N(C)Cc1ccc2c(c1)OCCO2` | 16.48 |
| 8 | `CCCS(=O)(=O)N1C[C@H]2C[C@H](C(=O)N3CCOCC3)[C@@H](C1)O2` | 9.524 |
| 9 | `CC(=O)Nc1cccc2c1ccn2CC(=O)Nc1nc[nH]n1` | 8.401 |
| 10 | `CC(=O)N1CCN(C(=O)NCCCN(C(C)C)S(C)(=O)=O)CC1` | 4.83 |
| 11 | `CCOc1ccc(C#N)cc1NCC(=O)Nc1cc(F)ccc1F` | 7.981 |
| 12 | `Cc1cnn(C2CCCN(C(=O)Cc3c(C)nn(C)c3C)C2)c1` (stereo not given) | 12.01 |
| 13 | `N#Cc1ccc(OCCNc2cccc(C(=O)N3CCOCC3)c2)cc1` | 8.661 |
| 14 | `CCn1c(C2CCN(C(=O)c3cc(CC(C)C)no3)CC2)nn(C)c1=O` | 16.52 |
| 15 | `Cc1cc(CN(C)c2nc(-c3ccccn3)nc3c2CCNCC3)n[nH]1` | 8.602 |
| 16 | `CCN1CC[C@@]2(C(=O)N3CCCC3)CCN(S(C)(=O)=O)CC[C@@H]12` | -58.33 |
| 17 | `CN1C(=O)CC(c2ccccc2)C12CCN(CC1CC1)CC2` (stereo not given) | 17.93 |
| 18 | `Cc1cnccc1N1CCCN(C(=O)CCc2n[nH]c(C)c2C)CC1` | 9.22 |
| 19 | `Cc1cc(NCCc2nnc(N)s2)nc(-c2ccccc2)n1` | 11.23 |
| 20 | `CCN(CC)S(=O)(=O)N(CC)Cc1ccc2c(c1)OCCO2` | 19.89 |
| 21 | `CN(C)c1cccc(C(=O)Nc2cnn(Cc3ccccn3)c2)c1` | 15.5 |
| 22 | `COc1ccc(CC(C)Nc2cccc(F)c2)cc1` (stereo not given) | 8.254 |
| 23 | `COc1cccc2c1OCC(C(=O)N1CCN(CCS(C)(=O)=O)CC1)C2` (stereo not given) | 12.04 |
| 24 | `Cc1ccc(-c2nc(CN3CCCC(Cn4cncn4)C3)cs2)o1` (stereo not given) | 14.42 |
| 25 | `CCCC(NC(=O)c1cscc1C)c1nnn[nH]1` (stereo not given) | -2.122 |
| 26 | `O=C(N1CCC(O)(C(F)(F)F)C1)C1(c2cccc(Cl)c2)CC1` (stereo not given) | 23.18 |
| 27 | `CCOCC(=O)NC(C)Cc1ccccc1Br` (stereo not given) | 17.74 |
| 28 | `O=c1[nH]c2ccccc2cc1CNCCCN1CCOCC1` | 9.375 |
| 29 | `CCc1noc(CN2CCCC(Cn3nc(C)nc3C)C2)n1` (stereo not given) | 13.11 |
| 30 | `Cn1cc(CN2CCCn3cnc(COCc4ccco4)c3C2)cn1` | 10.75 |
| 31 | `Cc1cccc(-c2cc(C(=O)O)sn2)c1` | 11.8 |
| 32 | `CCN(Cc1ccccc1)C(=O)c1cc(C2CCCN2C)ccn1` (stereo not given) | 13.59 |
| 33 | `Cc1ccc(CNC(=O)N2CCN(S(C)(=O)=O)CC2)n1C` | 22.07 |
| 34 | `CCc1noc(CN2CCN(Cc3cccs3)CC2)n1` | 12.5 |
| 35 | `c1cnc(OCc2nnc3n2CCN(CC2CCOCC2)C3)nc1` | 10.46 |
| 36 | `Cc1nccn1-c1cc(CNC(=O)c2ccnc(N(C)C)c2)ccn1` | 15.05 |
| 37 | `CC(=O)Nc1nc2c(s1)CN(CC(=O)Nc1ccc(C)c(Cl)c1)CC2` | 17.43 |
| 38 | `O=C(c1cnccn1)N1CCC2(CCN(Cc3ccsc3)CC2)CC1` | 9.589 |
| 39 | `O=C(NC1CCCC1)C1(Cc2cc(C3CCOC3)no2)CCNCC1` (stereo not given) | -13.29 |
| 40 | `Cc1cccc(NCC(=O)Nc2cc(F)ccc2F)c1C(N)=O` | 16.15 |
| 41 | `Cn1ccc(CN2CCC(Cc3ccccc3)CC2)cc1=O` | 11.48 |
| 42 | `CN(CC(C)(CO)CO)C(=O)Nc1cc(F)cc(Cl)c1` | 17.89 |
| 43 | `CN(Cc1cccc(-n2cccn2)c1)Cc1cccs1` | 17.4 |
| 44 | `O=C(C1CCC1)N1CC[C@]2(O)CCN(Cc3ncccn3)C[C@@H]2C1` | 8.505 |
| 45 | `O=C(NC1CC1)NC(c1ccc(F)cc1)C1CC1` (stereo not given) | 20.92 |
| 46 | `c1nc2n(n1)CC(NCc1nc(-c3ccsc3)no1)CC2` (stereo not given) | 13.02 |
| 47 | `COc1ccc2nnc(CCC(=O)Nc3nc4c(s3)CCCC4)n2n1` | 4.301 |
| 48 | `CC(=O)N1CCCN(S(=O)(=O)c2cc3ccccc3o2)CC1` | 10.6 |
| 49 | `CCOC(C(=O)N1CCn2c(nnc2C(C)C)C1)c1ccccc1` (stereo not given) | -6.72 |
| 50 | `CN(C)CCN(Cc1cccc(F)c1)C(=O)c1ccn(C)c(=O)c1` | 9.244 |
| 51 | `CC(O)CN1CCN(Cc2coc(-c3ccccc3Cl)n2)CC1` (stereo not given) | 8.761 |
| 52 | `CCOCCN1CCN(CCOC)CC1C` (stereo not given) | 11.54 |
| 53 | `Cc1cn(Cc2nc(CC(C)C)nn2-c2ccccn2)c(=O)[nH]c1=O` | 6.684 |
| 54 | `O=C(NCc1ccnc(OCC2CC2)c1)C1Cc2ccccc2O1` (stereo not given) | 9.777 |
| 55 | `CCN1CCC(NC(=O)Cc2csc(C(C)(C)C)n2)CC1` | 10 |
| 56 | `CS(=O)(=O)CCC(=O)N(Cc1c(F)cccc1F)C1CCCC1` | 10.76 |
| 57 | `Cc1c(Br)cccc1CNC1(CCO)CCOCC1` | 5.319 |
| 58 | `CN(C)CCOCc1nnc2n1CCN(Cc1ccoc1)CC2` | 0.8219 |
| 59 | `Cc1nc2ccc(C(=O)N3C[C@@H](O)[C@H](N4CCOCC4)C3)cc2[nH]1` | 3.215 |
| 60 | `CN1CCC(N[C@@H]2CO[C@H](CNC(=O)c3cccs3)[C@H]2O)CC1` | 8.791 |
| 61 | `O=C1N(C2CCCCC2)C[C@H]2CN(C3CCC3)CCN12` | 5.263 |
| 62 | `O=C(O)C1CN(Cc2cnc(C3CCCCC3)nc2)CCO1` (stereo not given) | 7.796 |
| 63 | `CN(C)C(=O)N1CC[C@]2(O)CCN(C(=O)c3ccc(C#N)nc3)C[C@@H]2C1` | 9.964 |
| 64 | `CC(=O)N(Cc1noc(C2CC2)n1)C1CCN(Cc2ccccc2)C1` (stereo not given) | 4.19 |
| 65 | `COc1ccc(-c2noc(C3CC(C(C)C)=NO3)n2)cc1` (stereo not given) | 11.29 |
| 66 | `CCS(=O)(=O)c1ncc(CN(C)CCc2ccccn2)n1CCOC` | 10.03 |
| 67 | `CCOc1ccnc(N2CCN(C(=O)c3cccnc3)CC2)n1` | 16 |
| 68 | `Cc1nc(C)n(CC2CN(S(C)(=O)=O)Cc3nccn3C2)n1` (stereo not given) | 3.78 |
| 69 | `Cn1cncc1C(=O)N1CCCC(c2ccn[nH]2)C1` (stereo not given) | 19.2 |
| 70 | `CC(=O)N(Cc1ncc(C)o1)C1CCN(CCn2cccn2)C1` (stereo not given) | 2.011 |
| 71 | `Cc1cc(CN2CCCC2Cn2cncn2)no1` (stereo not given) | 7.975 |
| 72 | `COCCOCCNS(=O)(=O)C1CS(=O)(=O)c2ccccc21` (stereo not given) | 6.028 |
| 73 | `CN(Cc1nnc(-c2ccco2)o1)C(C(N)=O)c1cccc(F)c1` (stereo not given) | 16.33 |
| 74 | `CCCc1nc(CN(CC)Cc2ccc(O)c(C(=O)O)c2)no1` | 11.04 |
| 75 | `COCCn1cc(CC(=O)Nc2nc3c(s2)CCC3)c2ccccc21` | 23.82 |
| 76 | `COCc1nn(C(C)C)c2c1CCN(Cc1ccoc1)C2` | 14.38 |
| 77 | `Cn1cnc2c1C(COCc1ccccc1)N(Cc1ccccn1)CC2` (stereo not given) | 14.01 |
| 78 | `CC(C)CC(CCO)CNC(=O)N1CCC1(C)C` (stereo not given) | 0.2639 |
| 79 | `Cn1cc(CN2CC[C@H]3O[C@H](C(=O)NC4CC4)CC[C@H]32)c2ccccc21` | 18.98 |
| 80 | `CC(CNC(=O)c1ccc(F)cc1I)N1CCCC1` (stereo not given) | 1.523 |
| 81 | `COCCN1CCC(CNC(=O)C2(c3ccc(Br)cc3)CCCC2)C1` (stereo not given) | 18.72 |
| 82 | `Cc1cccc(S(=O)(=O)N2C[C@H]3C[C@H](C(=O)NCC4CC4)[C@@H](C2)O3)c1` | 10.14 |
| 83 | `Cc1cc(C)c2c(N(C)CC3COCCO3)ncnc2n1` (stereo not given) | 12.33 |
| 84 | `O=C(c1cccnc1O)N1CCCN(c2cccnn2)CC1` | 1.718 |
| 85 | `COCC(=O)N(C)Cc1ccc(F)c(F)c1` | 9.816 |
| 86 | `O=C(Cc1csc(-c2nnc[nH]2)n1)N1CCCC1Cn1cccn1` (stereo not given) | 11.19 |
| 87 | `Cc1ccccc1CS(=O)(=O)CC(=O)N(C)Cc1cccc(F)c1` | 11.98 |
| 88 | `CN1CCC(NC(=O)c2cc(Cl)cc(Br)c2O)C1=O` (stereo not given) | 12.06 |